Measured values as given in patent US20250090663A1.
Numbering of substitutions follows the chain as printed. These are yes or no findings as the source states them, for the method shown. Some entries that bind do so weakly or less than the wild type. For some assays here: Sequences can lack the tags named with a protein. Blank lines part the entries; values can stand above or below the binder they belong to.

Assays:
[1] = molecular target: T1, CD70 (antigen of the Carterra KD analysis) (UniProt P32970); assay: Carterra KD analysis of VHH-Fc fusion constructs
T1 sequence (looked up): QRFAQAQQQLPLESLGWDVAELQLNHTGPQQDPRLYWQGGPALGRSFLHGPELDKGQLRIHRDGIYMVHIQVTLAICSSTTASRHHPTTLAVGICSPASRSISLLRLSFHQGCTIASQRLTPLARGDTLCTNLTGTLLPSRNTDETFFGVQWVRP

[2] = molecular target: IL13RA2 Protein, Rhesus macaque, His tag (Rhesus macaque); assay: BLI; summary of Table 9B

- binding [2]: binds
B3: VH53f3 (VHH)
VHH: QVQLQESGGGLVQPGGSLRLSCEVSGSISSINRMAWYRQVPGKEREMVAQITYGDTIKYYGSAKGRFTISKDSAKNAVYLQMNSLKPEDTAVYRCNIVGVLTTGHYENSFWGQGTQVTVSS
modifications: biotinylated (site not stated)

- binding [2]: binds
B4: IL13Ra2_2TIG4_f3 (VHH)
VHH: QVQLQESGGGLVQPGGSLRLSCAASGRTYGMGWFRQAPGKEREFVAVGVWSSGNTYYADFARGRFTISRDNAKNTVYLQMDSLKPEDTAVYYCAAPRYSSYTTYHAAYDYWGPGTQVTVSS
modifications: biotinylated (site not stated)

Further lines, the binder ahead of its results:

B1: H1-Fc (anti-CD70 VHH-Fc fusion polypeptide) (Fc fusion, not shown: a dimerising Fc or GST)
chain: QVQLQESGGGLVQAGGSLRLSCAAPRSIFSINAMGWYRQAPGKQRELVAAITSGGSPTYADSVKGRFTISRDNAKNTVYLQMNSLKAEDTAVYYCATGPYGLDNALDAWGQGTQVTVSS
- binding [1]: binds

B2: VH52f3 (VHH)
VHH: B3 VHH with S29F, G42E, K71R, N108D, S120P
modifications: biotinylated (site not stated)
- binding [2]: binds

B5: VH36f1 (VHH)
VHH: QVQLQESGGGSVQPGGSLRLSCAASGINISSDVMEWFRQGPGEQRELVAHITTNSRTEYADFVKGRFTISRANAKNTLYLQMNGLKPEDTALYYCALRRGGRILWGQGTQVTVSS
modifications: biotinylated (site not stated)
- binding [2]: binds
